Record: PubChem BioAssay AID1259254 (NCATS, 2017)
The whole screen tested about 59,000 reagents; below is an unselected part. About 1,550 of all reagents (2.6%) were called active. 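G2 share is only a proxy for re-replication; each gene was hit by three separate siRNAs, and active genes were retested.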 Unmarked entries are inactive. Not all columns of the deposit are shown. The record does not give: the amount of reagent.

Purpose: 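Genome-wide screen for genes that prevent DNA re-replication in cancer cells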 (primary screen)
Cell system: human HCT116 colorectal cancer cells
Reagents: single siRNA against human genes
Timing: 3 days
Read-out: 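Nuclei stained with Hoechst and imaged; cell-cycle phase assigned by DNA content; G2 share scaled per plate, non-targeting siRNA 0%, GMNN siRNA 100%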
Scale: G2 robust z-score: higher = more G2 cells, more excess DNA replication
Call rule: 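An siRNA counts as active if its G2 robust z-score lies at least 5 MADs above the screen median; here such calls match roughly 38% of GMNN control or more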

CENPH [SID160748157]: G2 robust z-score = 0.763
CENPH [SID160748158]: G2 robust z-score = 0.29
CENPH [SID160748160]: G2 robust z-score = 0.332
RRP15 [SID160739862]: G2 robust z-score = -0.514
RRP15 [SID160739863]: G2 robust z-score = -0.204
RRP15 [SID160739864]: G2 robust z-score = 2.53

2 entries from above, sorted by “G2 robust z-score”, high to low.
CENPH [SID160748157]: G2 robust z-score = 0.763
CENPH [SID160748158]: G2 robust z-score = 0.29

Further entries follow.
ACTBL2 [SID160764870]: G2 robust z-score = 0.894
ACTBL2 [SID160764871]: G2 robust z-score = 4.1
ACTBL2 [SID160764872]: G2 robust z-score = -0.521
EHF [SID160737938]: G2 robust z-score = 1.96
EHF [SID160737939]: G2 robust z-score = 1.03
EHF [SID160737940]: G2 robust z-score = 0.571
